# Source: PubChem BioAssay AID720505 (Drosophila RNAi Screening Center, 2013)
# Test: 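Fly regulators or components of the CRAC channel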 (primary screen)
# System: Drosophila S2R+ cells
# Knock-down reagent: long dsRNA against Drosophila genes
# Conditions: thapsigargin (2 µM) in calcium-free buffer to empty internal stores, then 2 mM calcium added back
# Read-out: 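Fluo-4 signal in 384-well plates read on a FLIPR after thapsigargin (2 µM, calcium-free) store depletion and 2 mM calcium add-back; unnormalised mean endpoint per well; screen run twice, selected wells retested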
# Scale: calcium signal and retest calcium signal: higher = more calcium entry after store depletion
# Hit rule: 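About 1500 genes called as lowering calcium entry, by varying amounts, judged against per-plate control wells with STIM1 as positive and Rho1 as negative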
# Calls: active = called as lowering calcium entry; inactive = not called
# The screen tested about 20,000 reagents; shown is a random part of those that have a named target and a result. Over the whole deposit, about 2,100 (10%) are marked active. 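Raw plate signals without normalisation; calls rest on control-based scores that were not deposited; replicate 2 separates called from uncalled poorly.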 A plus sign joins genes that one reagent is predicted to hit. Not given: the amount of reagent, the time to read-out.
Target gene,amplicon,"calcium signal, replicate 1","calcium signal, replicate 2","retest calcium signal, replicate 1","retest calcium signal, replicate 2",activity call
CG3792,DRSC02725,182,113,,,inactive
nord,DRSC04210,112,164,,,inactive
nord,DRSC04361,129,150,,,inactive
CG15646,DRSC19682,109,165,,,inactive
nAChRalpha1,DRSC17008,202,132,,,inactive
Lip3,DRSC16727,195,197,94.1,87.8,inactive
Ir52b,DRSC06263,50,140,,,active
CG30371,DRSC06835,109,135,,,inactive
CG33490,DRSC10587,100,131,,,inactive
Eaf6,DRSC09901,108,78.9,,,inactive
Rad23,DRSC17167,121,160,,,inactive
Jon25Bii,DRSC03114,155,126,,,inactive
Cad88C,DRSC15486,158,222,,,inactive
Rrp46,DRSC15537,140,99.1,,,inactive
Ptip,DRSC10660,78.9,108,,,inactive
Ptip,DRSC11048,105,141,,,inactive
CG14151,DRSC10153,78.7,71.5,,,inactive
Srx,DRSC20005,64,120,,,active
Mal-A6,DRSC07233,177,181,,,inactive
eIF3d2,DRSC15651,92.3,104,,,inactive
CG14667,DRSC12253,124,116,,,inactive
CD98hc,DRSC15453,95.8,162,,,inactive
pod1,DRSC18362,204,125,,,inactive
Pbp95,DRSC15448,121,173,,,inactive
Gnpat,DRSC16960,134,93.8,,,inactive
CG10116,DRSC09700,112,91.4,,,inactive
smg,DRSC11397,98.3,104,,,inactive
CG14356,DRSC14819,98.1,96,,,inactive
trk,DRSC03625,179,180,,,inactive
Lk,DRSC10022,79.1,152,,,inactive
CG31551,DRSC12159,148,149,122,134,inactive
CG31551,DRSC22403,71,156,,,inactive
Rpi,DRSC04583,102,86.3,,,active
CG9263,DRSC03176,54,99,,,active
Obp51a,DRSC22412,92.7,178,,,inactive
betaNACtes5,DRSC19100,107,120,,,inactive
CG9518,DRSC20194,113,172,,,inactive

Part of the list above, limited to “calcium signal, replicate 1”:
Ptip [DRSC10660]	78.9
Ptip [DRSC11048]	105
CG14151 [DRSC10153]	78.7
Srx [DRSC20005]	64
Mal-A6 [DRSC07233]	177
eIF3d2 [DRSC15651]	92.3
CG14667 [DRSC12253]	124
CD98hc [DRSC15453]	95.8
pod1 [DRSC18362]	204
Pbp95 [DRSC15448]	121
Gnpat [DRSC16960]	134
CG10116 [DRSC09700]	112
smg [DRSC11397]	98.3

Next records:
Target gene,amplicon,"calcium signal, replicate 1","calcium signal, replicate 2","retest calcium signal, replicate 1","retest calcium signal, replicate 2",activity call
Capa,DRSC15058,113,183,,,inactive
Acsf3,DRSC18146,69.1,161,,,active
CG9624,DRSC16523,94.7,75.2,,,inactive
CG5819,DRSC04520,68.9,237,,,inactive
unc,DRSC20511,147,94.3,,,inactive
t-cup,DRSC01254,232,107,,,inactive
CG10459,DRSC05991,103,166,,,inactive
CG10459,DRSC22092,95.2,214,,,inactive
CG14957,DRSC08416,75.5,115,,,inactive
hebe,DRSC05192,115,143,,,inactive
hebe,DRSC06605,199,210,79.2,125,inactive
hebe,DRSC21614,128,101,,,inactive
EbpIII,DRSC04638,82.5,126,,,inactive
RpL36A,DRSC03055,141,201,,,inactive
CG5391,DRSC15790,189,161,,,inactive
CG9853,DRSC12343,164,84,133,108,inactive
CG9853,DRSC22840,87.3,101,,,inactive
CG3706,DRSC18649,122,142,,,inactive
CG1827,DRSC06719,125,125,,,inactive
CG3347,DRSC00597,165,120,,,inactive
CG9855,DRSC12344,67.6,133,153,145,active
stnB + stnA,DRSC20969,148,180,,,inactive
stnB + stnA,DRSC21112,187,105,,,inactive
stnB + stnA,DRSC21113,127,104,,,inactive
CG7884,DRSC20065,63.4,161,,,active
CR33221,DRSC21201,127,150,,,inactive
mei-9,DRSC18792,300,140,,,inactive
CG30054,DRSC05354,119,147,,,inactive
Non3,DRSC16359,142,223,,,inactive
eIF3b,DRSC06900,114,115,,,active
CG15022,DRSC08476,83.2,56.4,,,inactive
Pdp,DRSC17825,116,127,,,inactive
peo,DRSC05995,221,163,,,inactive
CG13318,DRSC14581,144,189,,,inactive
CG4045,DRSC18518,139,136,,,inactive
CG17111,DRSC15174,178,145,,,inactive
Sp1,DRSC18717,103,78.7,,,inactive
Cap-D2,DRSC15401,71.8,124,,,inactive
Hcf,DRSC17143,116,162,,,inactive
Hsp70Bb + Hsp70Bbb,DRSC15885,163,139,87.8,99.8,inactive
CG5160,DRSC02821,66.9,167,,,active
Dcps,DRSC12299,116,101,,,inactive
fmt,DRSC09717,104,150,,,inactive
sut4,DRSC07703,180,177,,,inactive
CG14642,DRSC12228,112,98.1,,,inactive
CG33339,DRSC22917,85,183,,,inactive
